# Reference: PubChem BioAssay AID1745850 (National Center for Advancing Translational Sciences (NCATS), 2022)
# Screen size: about 2,100 compounds; about 260 (12%) were called active. This list was built around the results that the source calls inconclusive (neither active nor inactive); the mix of calls is not that of the screen. Calls come from the whole dose curve; as a rule, active = well fitted cell-killing curve with a large enough effect; inconclusive = small, poorly fitted or top-dose-only effect, or effect the other way; inactive = flat fitted curve, though single readings scatter. Where the call is inconclusive, the potency comes from a doubtful curve fit.
# Test: Viability Counterscreen for Confirmatory qHTS for Inhibitors of ATXN expression; note: nearly all actives have a fitted effect of over 50% in size
# Details: HEK-293 ATXN2-luc cells viability, CellTiter-Fluor, 24 h
# Procedure, shortened: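 Luminescence read-out (SteadyGlo, 5 min) followed a 30 min Gly-Phe-AFC (25 uM final) viability fluorescence read. ATXN2-luciferase reporter cells were exposed 24 h to a dilution series. Medium-only wells served as the 100% inhibition reference.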
# Potency is the fitted concentration of half-maximal effect.
row,Compound,Potency
1,CC(C)(C)NCC(=Cc1ccccc1)C(=O)c1ccccc1,active: 3.55 µM
2,COc1cccc(/C=N/NC(=O)c2ccc(-c3ccccc3)cc2)c1O,"inconclusive: 7.08 µM [cytotoxic, partial curve]"
3,CC1CCCCN1S(=O)(=O)c1ccc(C(=O)Nc2nnc(-c3ccccc3Cl)o2)cc1 (stereo not given),inactive
4,O=c1c2c(nc3c(-c4ccc(Cl)cc4)c[nH]n13)CCCC2,"inconclusive: 2.51 µM [cytotoxic, partial curve]"
5,CCCCC/C=C/C1=CC(=O)C[C@H](c2ccc(OC)c(OC)c2)C1,inactive
6,Cc1ccc(Sc2nnc(Cc3ccccc3)c3ccccc23)cc1,inactive
7,COc1ccccc1NC(=O)Nc1nc(CC(=O)N2CCN(c3ccccc3)CC2)cs1,inactive
8,CCn1c2ccccc2c2cc(NC(=O)COC(=O)C3CCC(=O)N3)ccc21 (stereo not given),inactive
9,COc1cc(C#Cc2c(-c3cncn3C)n(C)c3ccc(-c4ccc(OC)nc4)cc23)cc(OC)c1,"inconclusive: 39.8 µM [cytotoxic, single point]"
10,Cc1cc(C)cc(NC(=O)CSc2nc3nc(C)cc(C)c3c(=O)[nH]2)c1,"inconclusive: 39.8 µM [cytotoxic, single point]"
11,COc1ccc(Nc2oc(COc3ccccc3OC)nc2C#N)cc1,inactive
12,COc1ccc(NC(=O)N2CCN(c3nc(-c4cccc(OC)c4)cs3)CC2)cc1,"inconclusive: 3.16 µM [cytotoxic, partial curve, poor fit]"
13,O=C(N/N=C/c1ccccc1O)c1ccncc1,"inconclusive: 20 µM [cytotoxic, single point]"
14,Cc1cc(C)c2nc(NNC(=O)c3cc(-c4cccs4)nc4ccccc34)sc2c1,inactive
15,CCCOc1ccc(C(=O)C(CN2CCOCC2)c2ccccc2)cc1 (stereo not given),"inconclusive: 31.6 µM [cytotoxic, single point]"
16,COc1cc(/C=C/C(=O)Nc2ccc(OC)c(S(=O)(=O)N3CCOCC3)c2)ccc1OCC#N,inactive
17,COc1cccc2c1C(=N)c1c(O)c3c(c(O)c1C2=O)CC(O)(C(C)=O)CC3OC1CC(N)C(O)C(C)O1 (stereo not given),active: 4.47 µM
18,COc1ccc(N(C)S(=O)(=O)c2ccc(Cl)c(C(=O)NCCc3ccc(Cl)cc3)c2)cc1,inactive
19,NS(=O)(=O)c1ccc(NC(=O)COC(=O)c2c3c(nc4ccccc24)/C(=C\c2ccc4c(c2)OCO4)CCC3)cc1,inactive
20,Cc1ccc(S(=O)(=O)Nc2cccc3cccnc23)cc1,"inconclusive: 8.91 µM [cytotoxic, full curve, poor fit]"
21,NS(=O)(=O)c1ccc(CCNc2ccn3nc(-c4cccc(C(F)(F)F)c4)cc3n2)cc1,"inconclusive: 28.2 µM [cytotoxic, single point]"
22,CC(=O)Nc1cccc(-c2ccnc3c2CC(C)(C(=O)Nc2ccc(F)c(Cl)c2)O3)c1 (stereo not given),"inconclusive: 22.4 µM [cytotoxic, partial curve, poor fit]"
23,CCCC(=O)NC(c1ccc(OC)c(OC)c1)c1cc(Cl)c2cccnc2c1O (stereo not given),"inconclusive: 7.94 µM [cytotoxic, partial curve]"
24,CC1CCCCN1S(=O)(=O)c1ccc(C(=O)Nc2nnc(-c3ccncc3)o2)cc1 (stereo not given),"inconclusive: 31.6 µM [cytotoxic, single point]"

row,Compound,Potency
1,CC(C)=CCc1c(O)cc2oc3c(CC=C(C)C)c(O)c(O)c(CC=C(C)C)c3c(=O)c2c1O,inactive
2,C(=N\NC(=Nc1ccccc1)c1ccccn1)/c1ccccn1,inactive
3,Cc1nc(SC2CC(=O)N(c3ccccc3)C2=O)n[nH]1 (stereo not given),inactive
4,O=C(Nc1ccc(NC(=O)c2ccco2)cc1)c1ccc2c(c1)OCCO2,"inconclusive: 39.8 µM [cytotoxic, single point]"
5,CCc1c2c(nc3ccc(OC(=O)N4CCC(N5CCCCC5)CC4)cc13)-c1cc3c(c(=O)n1C2)COC(=O)[C@]3(O)CC,"inconclusive: 0.562 µM [cytotoxic, full curve]"
6,CCn1c(C)nc2cc(C(=O)N/N=C(\C)c3ccc(OC)cc3O)ccc21,"inconclusive: 35.5 µM [cytotoxic, partial curve]"
7,Cc1cc[n+](C(C)C(=O)c2ccc(-c3ccccc3)cc2)cc1 (stereo not given),"inconclusive: 22.4 µM [cytotoxic, single point]"
8,COc1ccccc1N1C(=O)N(C(C)=O)C2C1Nc1ccccc1N2C (stereo not given),"inconclusive: 14.1 µM [cytotoxic, partial curve, poor fit]"
9,CCC(=O)NNC(=S)NC(=O)c1ccc(C)cc1,"inconclusive: 39.8 µM [cytotoxic, single point]"
10,Cc1cc(C)c(C)c(OC(=O)c2sc(Cl)nc2C)c1,active: 28.2 µM
11,Nc1c(C(=O)NCc2ccc3c(c2)OCO3)c2nc3ccccc3nc2n1CCCN1CCOCC1,inactive
12,COc1ccc(C(=O)C=CNNC(=O)c2ccc(Cl)cc2)cc1,"inconclusive: 22.4 µM [cytotoxic, single point]"
13,OC[C@@H]1CN(Cc2ccc(-c3ccccc3)cc2)C[C@H](n2cnc3c(Nc4ccccc4)ncnc32)O1,active: 20 µM
14,CCOC(=O)Cn1cc(C(=O)c2ccco2)c2ccccc21,inactive
15,Cc1cccc2sc(N(CCCN(C)C)C(=O)c3ccco3)nc12,"inconclusive: 17.8 µM [cytotoxic, partial curve, poor fit]"
16,COC1=C(c2ccccc2)C(=O)c2ccccc2C1=O,inactive
17,COc1cc(N)ccc1Nc1c2ccccc2nc2ccccc12,active: 31.6 µM
18,CCCc1cnc(NCCNCC(O)COc2ccc(Cl)c(Cl)c2)nc1 (stereo not given),"inconclusive: 31.6 µM [cytotoxic, single point]"
19,COc1ccccc1NS(=O)(=O)c1cccc(C(=O)N/N=C/c2ccc([N+](=O)[O-])o2)c1,active: 15.8 µM
20,Cc1ccccc1C(=O)N1CCN(c2ccc(NC(=O)c3ccc4c(c3)OCCO4)cc2)CC1,"inconclusive: 3.16 µM [cytotoxic, partial curve]"
21,O=C(N/N=C\c1ccc([N+](=O)[O-])s1)c1cncc(Br)c1,active: 11.2 µM
22,Cc1ccc(NC(=O)c2cnc(N3CCN(c4ccccn4)CC3)c3ccccc23)c(Br)c1,active: 14.1 µM
23,O=C(CCCN1C(=O)S/C(=C\c2ccccc2)C1=O)NNC(=O)c1ccccc1O,inactive
24,CCCCOC(=O)/C=C\C(=O)NC(N)=O,"inconclusive: 25.1 µM [cytotoxic, single point]"

# Two records picked at random from those above, as already listed:
row,Compound,Potency
7,Cc1cc[n+](C(C)C(=O)c2ccc(-c3ccccc3)cc2)cc1 (stereo not given),"inconclusive: 22.4 µM [cytotoxic, single point]"
15,Cc1cccc2sc(N(CCCN(C)C)C(=O)c3ccco3)nc12,"inconclusive: 17.8 µM [cytotoxic, partial curve, poor fit]"

# Going on with the list.

row,Compound,Potency
1,Oc1cccc(C(O)CNCc2ccc(-c3ccccc3)cc2)c1 (stereo not given),"inconclusive: 39.8 µM [cytotoxic, single point]"
2,Cc1cccc2[nH]c3c(N4CC=C(c5ccc(F)cc5)CC4)ncnc3c12,"inconclusive: 39.8 µM [cytotoxic, single point]"
3,CCCC(NCC(O)COc1ccc(-c2ccccc2)cc1)c1ccccc1 (stereo not given),"inconclusive: 39.8 µM [cytotoxic, single point]"
4,CCOC(=O)c1c2ccc(OCC(=O)N/N=C/c3ccc(C)cc3)cc2n2ccccc12,inactive
5,NC(=O)C1CCN(C2=C(Cl)C(=O)c3ccccc3C2=O)CC1,"inconclusive: 39.8 µM [cytotoxic, single point]"
6,CC(C)Nc1nc(NC(C)C)nc(N(C#N)CCOc2ccc(Cl)cc2Cl)n1,inactive
7,Cc1cc(C)c2c(c1)/C(=C/C(=O)c1ccc(Br)s1)C(=O)N2,"inconclusive: 6.31 µM [cytotoxic, single point]"
8,Cc1nc(SCc2ccc(C(=O)O)cc2)nc2c1CCCC2,inactive
9,COc1cnc(-c2ccccn2)nc1Oc1ccc(Cl)c2ccccc12,"inconclusive: 7.08 µM [cytotoxic, single point]"
10,COCCCn1c(N)c(-c2nc3ccccc3n2C)c2nc3ccccc3nc21,inactive
11,Cc1ccc(NC(=O)/C=C/c2ccc([N+](=O)[O-])s2)c(C)c1,"inconclusive: 1.41 µM [cytotoxic, full curve]"
12,CCN(CC)c1c(C)nc2ccc(C(=O)Nc3cc(-c4ccccc4)ccc3OC)cn12,"inconclusive: 39.8 µM [cytotoxic, single point]"
13,CCc1ccccc1OCC(=O)Nc1nc(-c2cccnc2)cs1,"inconclusive: 39.8 µM [cytotoxic, single point]"
14,COc1cc2c3nnc(-c4ccc(F)cc4)c-3cn(Cc3ccc(F)cc3)c2cc1OC,"inconclusive: 8.91 µM [cytotoxic, single point]"
15,COc1ccc(Cl)cc1C(Nc1cccnc1)c1ccc2cccnc2c1O (stereo not given),"inconclusive: 25.1 µM [cytotoxic, partial curve]"
16,CC(=O)NC(c1ccccc1)c1cc(Cl)c2cccnc2c1O (stereo not given),"inconclusive: 11.2 µM [cytotoxic, partial curve]"
17,OCCN1CCN(C2CCC(c3ccc(F)cc3)c3ccc(F)cc32)CC1 (stereo not given),"inconclusive: 39.8 µM [cytotoxic, single point]"
18,NC(=O)c1cc([N+](=O)[O-])ccc1NCc1ccc(N)cc1,"inconclusive: 25.1 µM [cytotoxic, partial curve]"
19,CC(=O)Oc1ccc(C23c4ccccc4C2(OC(C)=O)c2cc(OC(C)=O)ccc23)cc1 (stereo not given),active: 28.2 µM
20,COc1ccc(C(=O)Nn2c(SCC(=O)c3ccccc3)nc3ccccc3c2=O)cc1,inactive
21,Cc1ccc(C)c(NC(=O)c2ccccc2NS(=O)(=O)c2cc([N+](=O)[O-])ccc2C)c1,"inconclusive: 2.82 µM [cytotoxic, partial curve]"
22,O=C(Nc1ccc(OC(F)F)c(Cl)c1)C(c1ccccc1)c1ccccc1,"inconclusive: 39.8 µM [cytotoxic, single point]"

# 3 structures out of the list, sorted by number of heavy atoms, smallest number first.
row,Compound,Potency
7,Cc1cc(C)c2c(c1)/C(=C/C(=O)c1ccc(Br)s1)C(=O)N2,"inconclusive: 6.31 µM [cytotoxic, single point]"
22,O=C(Nc1ccc(OC(F)F)c(Cl)c1)C(c1ccccc1)c1ccccc1,"inconclusive: 39.8 µM [cytotoxic, single point]"
20,COc1ccc(C(=O)Nn2c(SCC(=O)c3ccccc3)nc3ccccc3c2=O)cc1,inactive
